Reference: PMC8400343, “Synthesis and Evaluation of the Antidepressant-like Properties of HBK-10, a Novel 2-Methoxyphenylpiperazine Derivative Targeting the 5-HT1A and D2 Receptors” (Pharmaceuticals, 2021)

System: HepG2 cells
Assay: MTT viability assay in HepG2 cells
Type: cell-based, human
Conditions: 24 h
Description: To investigate the lack of hepatotoxicity of HBK-10 at 25 µM concentration, we used HepG2 cells. Viability was measured using 3-(4,5-dimethyl-thiazol-2-yl)-2,5-diphenyltetrazolium (MTT) assay. We chose 25 µM since such concentration was used in metabolic stability studies.
To investigate the preliminary hepatic safety of HBK-10 at the concentration used in metabolic stability study, a human hepatocellular carcinoma cell line—HepG2 (HB-8065TM, ATCC, Manassas, VA, USA) was used in the study. HepG2 cells were cultured in standard conditions (37 °C, 5% CO2, 95% humidity) in appropriate culture medium (according to manufacturer procedure), supplemented with 10% fetal bovine serum (FBS, Gibco, Thermo Fisher Scientific, Waltham, MA, USA) and antibiotics (1% streptomycin/penicillin mixture; Sigma-Aldrich, Steinheim, Germany). Cells were seeded in 96-well plates at density of 1 × 10^4 per well. After 24 h cells were treated with two doses of HBK-10 (5 and 25 µM, solvent—PBS) and incubated for additional 24 h. Following the incubation cells viability was measured with MTT assay. For this purpose, MTT reagent (3-(4,5-dimethylthiazol-2-yl)-2,5-diphenyltetrazolium bromide) (Sigma Aldrich, Steinheim, Germany) was added to each well at the concentration 0.5 mg/mL. After 4 h incubation at 37 °C, the medium was aspirated, and formazan crystals produced in the cells were dissolved in DMSO. Then the absorbance of solution was determined at 570 nm (A570) on plate reader (Spectra iD3 Max, Molecular Devices; San Jose, CA, USA). Viability (% of control) was determined by dividing A570 of experimental wells by of A570 of control wells × 100%.

## CCC(CN1CCN(c2ccccc2OC)CC1)NCCCOc1c(C)cccc1C.Cl.Cl (stereo not drawn) [HBK-10, N-(3-(2,6-dimethylphenoxy)propyl)-1-(4-(2-methoxyphenyl)piperazin-1-yl)butan-2-amine dihydrochloride]
HBK-10 1 μM
  Absorbance (OD570 nm): 0.531 OD570 nm
HBK-10 5 μM
  Absorbance (OD570 nm): 0.569 OD570 nm
HBK-10 25 μM
  Absorbance (OD570 nm): 0.463 OD570 nm
